Among the data in paper PMC5996148 are binding signal values, retold here.

Values joined by “and” are separate entries in the source; they are usually repeats but may differ in a detail not shown here. Equal entries are not always repeated. The list shows a part of the results. For some assays here: The source does not settle which construct or isoform was used.

Common to all, as to assay: protein microarray (ProtoArray v5.0), streptavidin-Alexa Fluor 647
What all share (settings): 3'-biotin; 20 mM Tris (pH 7.5), 5 mM MgCl2, 100 mM KCl, 0.1% Tween-20, A/T-rich and random oligonucleotide blockers; temperature not stated; high values mean tight binding

Assay [1] has as its target T1, DIXDC1 (UniProt Q155Q3).
T1 sequence: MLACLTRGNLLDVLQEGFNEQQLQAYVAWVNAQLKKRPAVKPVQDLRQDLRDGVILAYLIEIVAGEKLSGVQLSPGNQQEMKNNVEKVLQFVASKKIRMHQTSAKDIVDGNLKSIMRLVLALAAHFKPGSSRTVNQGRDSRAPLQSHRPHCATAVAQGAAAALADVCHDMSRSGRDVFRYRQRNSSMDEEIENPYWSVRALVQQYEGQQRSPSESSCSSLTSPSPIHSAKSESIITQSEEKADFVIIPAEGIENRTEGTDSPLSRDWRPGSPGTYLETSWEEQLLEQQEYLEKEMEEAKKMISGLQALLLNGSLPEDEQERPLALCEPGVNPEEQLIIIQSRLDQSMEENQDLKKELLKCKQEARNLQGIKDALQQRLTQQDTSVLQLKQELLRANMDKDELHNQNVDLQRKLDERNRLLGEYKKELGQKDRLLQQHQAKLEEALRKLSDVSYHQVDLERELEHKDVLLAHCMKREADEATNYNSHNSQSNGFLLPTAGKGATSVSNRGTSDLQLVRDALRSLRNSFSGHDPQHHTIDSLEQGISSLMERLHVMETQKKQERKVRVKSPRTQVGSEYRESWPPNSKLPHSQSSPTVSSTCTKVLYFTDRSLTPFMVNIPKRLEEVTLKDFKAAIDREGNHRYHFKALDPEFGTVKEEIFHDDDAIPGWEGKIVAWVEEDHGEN

In assay [2] the test system is DKFZP564O0823 (human).
Assay [3] has as its system DKFZp434B1231 (human).
Assay [4] has as its system DLEU1 (human).
The test system of assay [5] is DLK2 (human).
In assay [6] the test system is DLX1 (human).
Assay [7] has as its system DMD (human).
Assay [8] deals with DMKN (human).
Assay [9] relates to DMPK (human).
The subject of assay [10] is DMRTC1 (human).
Assay [11] relates to DNA repair protein XRCC4 (human).
Assay [12] has as its system DNA replication complex GINS protein PSF3 (human).
The subject of assay [13] is DNA-binding protein Ikaros (human).
Assay [14] deals with DNA-directed RNA polymerase II subunit RPB11-a (human).
The subject of assay [15] is DNA-directed RNA polymerase II subunit RPB11-b1 (human).
Assay [16] relates to DNA-directed RNA polymerase III subunit RPC9 (human).
The subject of assay [17] is DNA-directed RNA polymerases I, II, and III subunit RPABC5 (human).
Assay [18] relates to DNAI2 (human).
Assay [19] concerns DNAJB2 (human).
The test system of assay [20] is DNAJC12 (human).

Take “GGGAGGCTGAGGCAGG [G4-1 biotinylated (PQS2)]”: the binding signal in [1] was -0.328 z-score; in assay [2], -0.347 z-score; in assay [3], -0.31 z-score; in assay [4], -0.272 z-score; in assay [5], -0.316 z-score; in assay [6] it was -0.327 z-score. For the same sequence, the binding signal in [7] is -0.354 z-score and -0.36 z-score; in assay [8] it was -0.279 z-score; in assay [9], -0.342 z-score; in assay [10], -0.327 z-score; in [11] it was -0.29 z-score; in assay [12], -0.359 z-score. Moreover, the binding signal is -0.269 z-score in assay [13]; -0.305 z-score in [14]; -0.283 z-score in [15]; -0.317 z-score in [16]; -0.278 z-score in assay [17]; -0.326 z-score in assay [18]. In addition, the binding signal is -0.305 z-score in [19] and -0.347 z-score in assay [20].
